No constants are given. Whether binding was seen depends on the method and setting. Binding seen in cells or lysates may run through a third protein. Some results given as binding are weak or reduced against the parent protein; the word gives no strength. For part of these data: Sequences can lack the tags named with a protein.
Tests used:
[1] = biological target: T1, API5^WT, exogenous (tag not told for these experiments) (human) (UniProt Q9BZZ5); experiment: co-IP; candidate kinases predicted by GPS 6.0 screened against API5 (Figures S7 and S8B); constructs and cells not shown
T1 sequence: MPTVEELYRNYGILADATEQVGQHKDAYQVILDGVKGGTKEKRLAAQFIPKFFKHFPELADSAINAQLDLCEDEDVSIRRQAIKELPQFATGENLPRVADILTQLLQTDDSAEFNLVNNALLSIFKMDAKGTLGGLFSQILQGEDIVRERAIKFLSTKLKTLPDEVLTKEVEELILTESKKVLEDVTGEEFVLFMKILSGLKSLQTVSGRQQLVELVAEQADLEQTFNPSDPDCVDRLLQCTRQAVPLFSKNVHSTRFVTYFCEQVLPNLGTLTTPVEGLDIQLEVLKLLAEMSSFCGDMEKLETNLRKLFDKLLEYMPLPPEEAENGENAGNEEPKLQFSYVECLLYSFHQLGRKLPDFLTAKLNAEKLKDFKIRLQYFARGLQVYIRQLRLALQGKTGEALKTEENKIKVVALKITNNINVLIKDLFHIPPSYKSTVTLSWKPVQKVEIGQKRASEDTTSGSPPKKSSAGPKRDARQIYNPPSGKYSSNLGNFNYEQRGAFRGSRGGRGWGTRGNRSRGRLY

The chains behind the UniProt entries cited, without tags or fusion partners.
UniProt P49336: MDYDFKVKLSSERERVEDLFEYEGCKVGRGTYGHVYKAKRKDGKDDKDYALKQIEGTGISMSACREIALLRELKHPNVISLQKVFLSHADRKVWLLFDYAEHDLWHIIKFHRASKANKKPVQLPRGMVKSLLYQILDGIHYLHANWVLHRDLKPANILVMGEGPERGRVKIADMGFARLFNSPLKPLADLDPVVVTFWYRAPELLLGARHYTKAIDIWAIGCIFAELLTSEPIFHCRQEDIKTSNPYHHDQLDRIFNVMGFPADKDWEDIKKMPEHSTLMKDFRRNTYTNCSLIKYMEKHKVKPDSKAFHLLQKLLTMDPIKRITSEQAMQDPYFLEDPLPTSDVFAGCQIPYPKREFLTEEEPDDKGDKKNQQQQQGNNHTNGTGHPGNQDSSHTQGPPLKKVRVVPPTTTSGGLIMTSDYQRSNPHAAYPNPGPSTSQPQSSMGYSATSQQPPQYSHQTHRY
UniProt Q96SB4: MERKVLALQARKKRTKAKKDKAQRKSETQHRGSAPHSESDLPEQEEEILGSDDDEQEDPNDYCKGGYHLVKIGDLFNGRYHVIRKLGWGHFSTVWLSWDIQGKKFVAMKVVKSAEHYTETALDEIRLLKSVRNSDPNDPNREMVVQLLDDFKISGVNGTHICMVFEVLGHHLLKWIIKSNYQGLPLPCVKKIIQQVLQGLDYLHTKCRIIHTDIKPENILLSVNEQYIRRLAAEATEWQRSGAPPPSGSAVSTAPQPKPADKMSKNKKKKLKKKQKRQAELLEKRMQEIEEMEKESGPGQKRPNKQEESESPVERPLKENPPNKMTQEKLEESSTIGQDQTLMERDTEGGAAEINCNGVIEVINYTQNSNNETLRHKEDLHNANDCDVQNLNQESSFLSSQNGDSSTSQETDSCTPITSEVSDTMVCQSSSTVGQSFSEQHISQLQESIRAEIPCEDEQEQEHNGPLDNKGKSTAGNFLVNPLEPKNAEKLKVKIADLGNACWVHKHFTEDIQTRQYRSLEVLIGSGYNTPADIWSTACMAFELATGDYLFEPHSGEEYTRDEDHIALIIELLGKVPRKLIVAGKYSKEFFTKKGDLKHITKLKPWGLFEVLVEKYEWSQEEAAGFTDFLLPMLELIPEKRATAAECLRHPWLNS
UniProt P49759: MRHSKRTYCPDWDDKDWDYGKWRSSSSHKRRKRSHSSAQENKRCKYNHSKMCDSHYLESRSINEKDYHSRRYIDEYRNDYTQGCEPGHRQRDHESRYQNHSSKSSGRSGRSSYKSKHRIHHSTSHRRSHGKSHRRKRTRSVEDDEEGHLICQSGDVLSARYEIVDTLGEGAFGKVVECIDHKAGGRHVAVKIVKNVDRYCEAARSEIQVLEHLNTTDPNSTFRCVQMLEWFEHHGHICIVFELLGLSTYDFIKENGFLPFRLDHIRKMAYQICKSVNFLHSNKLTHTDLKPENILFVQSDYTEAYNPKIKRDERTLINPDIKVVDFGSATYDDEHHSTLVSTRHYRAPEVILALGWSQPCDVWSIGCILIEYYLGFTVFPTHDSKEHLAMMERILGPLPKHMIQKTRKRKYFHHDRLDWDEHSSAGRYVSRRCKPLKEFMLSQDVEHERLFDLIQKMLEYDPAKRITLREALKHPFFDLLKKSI
UniProt P68400: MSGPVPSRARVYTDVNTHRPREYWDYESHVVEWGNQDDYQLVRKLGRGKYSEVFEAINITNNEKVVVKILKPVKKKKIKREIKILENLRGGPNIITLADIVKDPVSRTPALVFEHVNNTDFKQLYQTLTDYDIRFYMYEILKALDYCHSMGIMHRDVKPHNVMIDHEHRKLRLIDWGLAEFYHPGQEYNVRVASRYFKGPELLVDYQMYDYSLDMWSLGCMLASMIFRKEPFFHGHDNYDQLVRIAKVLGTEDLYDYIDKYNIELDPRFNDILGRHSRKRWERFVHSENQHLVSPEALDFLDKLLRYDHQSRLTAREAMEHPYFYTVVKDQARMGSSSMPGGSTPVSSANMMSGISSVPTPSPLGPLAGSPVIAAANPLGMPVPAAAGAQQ
UniProt Q9P0L2: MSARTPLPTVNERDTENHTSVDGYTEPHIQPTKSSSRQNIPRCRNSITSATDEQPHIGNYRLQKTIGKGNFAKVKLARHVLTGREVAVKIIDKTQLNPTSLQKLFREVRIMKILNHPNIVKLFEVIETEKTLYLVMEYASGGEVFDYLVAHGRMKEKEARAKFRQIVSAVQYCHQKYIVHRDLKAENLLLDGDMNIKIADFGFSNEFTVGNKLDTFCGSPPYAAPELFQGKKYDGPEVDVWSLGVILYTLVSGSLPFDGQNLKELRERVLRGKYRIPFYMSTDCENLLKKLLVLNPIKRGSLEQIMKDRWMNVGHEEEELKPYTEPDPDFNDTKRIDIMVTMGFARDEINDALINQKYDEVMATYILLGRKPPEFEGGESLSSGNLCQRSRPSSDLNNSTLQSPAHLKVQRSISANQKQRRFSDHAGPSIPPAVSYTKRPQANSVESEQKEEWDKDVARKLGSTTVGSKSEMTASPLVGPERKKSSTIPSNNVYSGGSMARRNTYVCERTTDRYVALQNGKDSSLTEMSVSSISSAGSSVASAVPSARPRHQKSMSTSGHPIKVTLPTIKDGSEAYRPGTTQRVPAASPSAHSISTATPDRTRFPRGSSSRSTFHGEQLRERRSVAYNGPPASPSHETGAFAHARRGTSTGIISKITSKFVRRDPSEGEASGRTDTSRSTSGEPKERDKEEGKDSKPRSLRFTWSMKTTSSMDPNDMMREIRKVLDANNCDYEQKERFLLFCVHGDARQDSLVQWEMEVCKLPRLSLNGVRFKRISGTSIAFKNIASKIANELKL

[2] = biological target: T2, Apoptosis inhibitor 5 (API5), endogenous (human (endogenous in A549 and HEK293T)) (UniProt Q9BZZ5); experiment: co-IP
T2 sequence: T1 sequence

| binding [1] | binding [2] | Substance |
| --- | --- | --- |
| binds | – | CDK8 (candidate kinase in the co-IP screen) (from UniProt P49336 1-464) (enzyme) |
| binds | – | SRPK1 (candidate kinase in the co-IP screen) (from UniProt Q96SB4 1-655) (enzyme) |
| binds | – | CLK1 (candidate kinase in the co-IP screen) (from UniProt P49759 1-484) (enzyme) |
| – | binds | Serine/arginine-rich protein kinase 1 (SRPK1), endogenous (from UniProt Q96SB4 1-655) (enzyme) |
| binds | – | CSNK2A1 (candidate kinase in the co-IP screen) (from UniProt P68400 1-391) (enzyme) |
| binds | – | MARK1 (candidate kinase in the co-IP screen) (from UniProt Q9P0L2 1-795) (enzyme) |
